From paper PMC9234671, “Molecular determinants of αVβ5 localization in flat clathrin lattices – role of αVβ5 in cell adhesion and proliferation” (Journal of Cell Science, 2022) come the findings set out here.

Protein sequences, listed by entry. Tags and fused reporters are not part of them. Residues count along the entry.
UniProt P18084, residues 24-799: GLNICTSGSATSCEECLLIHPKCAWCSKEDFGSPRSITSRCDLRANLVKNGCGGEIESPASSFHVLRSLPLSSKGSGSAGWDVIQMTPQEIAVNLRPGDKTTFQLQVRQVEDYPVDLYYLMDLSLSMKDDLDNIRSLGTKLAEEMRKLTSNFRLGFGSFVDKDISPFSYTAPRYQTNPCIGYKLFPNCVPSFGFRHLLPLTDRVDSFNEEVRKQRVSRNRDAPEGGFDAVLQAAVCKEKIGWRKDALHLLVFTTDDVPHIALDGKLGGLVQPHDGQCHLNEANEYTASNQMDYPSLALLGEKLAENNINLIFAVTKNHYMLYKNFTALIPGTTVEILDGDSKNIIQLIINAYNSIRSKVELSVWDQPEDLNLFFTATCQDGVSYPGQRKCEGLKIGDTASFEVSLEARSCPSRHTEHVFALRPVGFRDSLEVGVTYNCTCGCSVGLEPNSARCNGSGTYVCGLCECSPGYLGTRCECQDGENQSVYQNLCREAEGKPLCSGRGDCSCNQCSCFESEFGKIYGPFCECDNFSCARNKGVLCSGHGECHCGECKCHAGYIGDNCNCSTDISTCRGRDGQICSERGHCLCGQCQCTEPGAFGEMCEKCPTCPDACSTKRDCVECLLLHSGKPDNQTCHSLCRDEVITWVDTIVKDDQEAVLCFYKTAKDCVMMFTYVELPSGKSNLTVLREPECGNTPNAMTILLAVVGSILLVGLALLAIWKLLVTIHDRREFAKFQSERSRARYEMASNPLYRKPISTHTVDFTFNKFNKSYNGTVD
UniProt O75914: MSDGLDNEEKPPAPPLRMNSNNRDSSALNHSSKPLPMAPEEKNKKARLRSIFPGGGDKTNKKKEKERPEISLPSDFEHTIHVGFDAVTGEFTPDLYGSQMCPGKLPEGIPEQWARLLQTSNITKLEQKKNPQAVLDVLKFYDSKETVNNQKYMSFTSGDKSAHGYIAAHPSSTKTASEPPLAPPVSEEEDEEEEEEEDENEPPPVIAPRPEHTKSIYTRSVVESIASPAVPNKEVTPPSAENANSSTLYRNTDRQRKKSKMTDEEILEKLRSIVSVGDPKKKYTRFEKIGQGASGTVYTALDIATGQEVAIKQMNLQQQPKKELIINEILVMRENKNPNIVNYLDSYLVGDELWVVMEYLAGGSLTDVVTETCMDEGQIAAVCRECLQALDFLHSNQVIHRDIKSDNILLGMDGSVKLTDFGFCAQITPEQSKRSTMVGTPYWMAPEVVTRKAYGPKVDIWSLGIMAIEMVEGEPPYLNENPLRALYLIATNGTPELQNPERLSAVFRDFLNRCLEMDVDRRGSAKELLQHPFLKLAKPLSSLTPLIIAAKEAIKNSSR
UniProt Q07866: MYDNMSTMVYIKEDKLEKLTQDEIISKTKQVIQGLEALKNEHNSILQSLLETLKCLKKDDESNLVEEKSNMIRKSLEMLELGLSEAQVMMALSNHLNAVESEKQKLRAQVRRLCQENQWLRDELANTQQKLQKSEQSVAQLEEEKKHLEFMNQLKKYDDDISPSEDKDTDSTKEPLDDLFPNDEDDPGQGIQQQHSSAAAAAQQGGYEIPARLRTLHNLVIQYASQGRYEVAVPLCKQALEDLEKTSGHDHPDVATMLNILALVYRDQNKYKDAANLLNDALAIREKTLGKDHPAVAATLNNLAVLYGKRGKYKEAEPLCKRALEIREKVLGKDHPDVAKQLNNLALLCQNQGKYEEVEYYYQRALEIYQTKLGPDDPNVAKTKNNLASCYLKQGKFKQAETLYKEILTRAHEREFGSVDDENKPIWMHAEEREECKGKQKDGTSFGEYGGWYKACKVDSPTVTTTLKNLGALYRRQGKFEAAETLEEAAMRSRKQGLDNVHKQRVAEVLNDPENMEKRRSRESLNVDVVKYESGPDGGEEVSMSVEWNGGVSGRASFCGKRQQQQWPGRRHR
UniProt Q9Y4B5: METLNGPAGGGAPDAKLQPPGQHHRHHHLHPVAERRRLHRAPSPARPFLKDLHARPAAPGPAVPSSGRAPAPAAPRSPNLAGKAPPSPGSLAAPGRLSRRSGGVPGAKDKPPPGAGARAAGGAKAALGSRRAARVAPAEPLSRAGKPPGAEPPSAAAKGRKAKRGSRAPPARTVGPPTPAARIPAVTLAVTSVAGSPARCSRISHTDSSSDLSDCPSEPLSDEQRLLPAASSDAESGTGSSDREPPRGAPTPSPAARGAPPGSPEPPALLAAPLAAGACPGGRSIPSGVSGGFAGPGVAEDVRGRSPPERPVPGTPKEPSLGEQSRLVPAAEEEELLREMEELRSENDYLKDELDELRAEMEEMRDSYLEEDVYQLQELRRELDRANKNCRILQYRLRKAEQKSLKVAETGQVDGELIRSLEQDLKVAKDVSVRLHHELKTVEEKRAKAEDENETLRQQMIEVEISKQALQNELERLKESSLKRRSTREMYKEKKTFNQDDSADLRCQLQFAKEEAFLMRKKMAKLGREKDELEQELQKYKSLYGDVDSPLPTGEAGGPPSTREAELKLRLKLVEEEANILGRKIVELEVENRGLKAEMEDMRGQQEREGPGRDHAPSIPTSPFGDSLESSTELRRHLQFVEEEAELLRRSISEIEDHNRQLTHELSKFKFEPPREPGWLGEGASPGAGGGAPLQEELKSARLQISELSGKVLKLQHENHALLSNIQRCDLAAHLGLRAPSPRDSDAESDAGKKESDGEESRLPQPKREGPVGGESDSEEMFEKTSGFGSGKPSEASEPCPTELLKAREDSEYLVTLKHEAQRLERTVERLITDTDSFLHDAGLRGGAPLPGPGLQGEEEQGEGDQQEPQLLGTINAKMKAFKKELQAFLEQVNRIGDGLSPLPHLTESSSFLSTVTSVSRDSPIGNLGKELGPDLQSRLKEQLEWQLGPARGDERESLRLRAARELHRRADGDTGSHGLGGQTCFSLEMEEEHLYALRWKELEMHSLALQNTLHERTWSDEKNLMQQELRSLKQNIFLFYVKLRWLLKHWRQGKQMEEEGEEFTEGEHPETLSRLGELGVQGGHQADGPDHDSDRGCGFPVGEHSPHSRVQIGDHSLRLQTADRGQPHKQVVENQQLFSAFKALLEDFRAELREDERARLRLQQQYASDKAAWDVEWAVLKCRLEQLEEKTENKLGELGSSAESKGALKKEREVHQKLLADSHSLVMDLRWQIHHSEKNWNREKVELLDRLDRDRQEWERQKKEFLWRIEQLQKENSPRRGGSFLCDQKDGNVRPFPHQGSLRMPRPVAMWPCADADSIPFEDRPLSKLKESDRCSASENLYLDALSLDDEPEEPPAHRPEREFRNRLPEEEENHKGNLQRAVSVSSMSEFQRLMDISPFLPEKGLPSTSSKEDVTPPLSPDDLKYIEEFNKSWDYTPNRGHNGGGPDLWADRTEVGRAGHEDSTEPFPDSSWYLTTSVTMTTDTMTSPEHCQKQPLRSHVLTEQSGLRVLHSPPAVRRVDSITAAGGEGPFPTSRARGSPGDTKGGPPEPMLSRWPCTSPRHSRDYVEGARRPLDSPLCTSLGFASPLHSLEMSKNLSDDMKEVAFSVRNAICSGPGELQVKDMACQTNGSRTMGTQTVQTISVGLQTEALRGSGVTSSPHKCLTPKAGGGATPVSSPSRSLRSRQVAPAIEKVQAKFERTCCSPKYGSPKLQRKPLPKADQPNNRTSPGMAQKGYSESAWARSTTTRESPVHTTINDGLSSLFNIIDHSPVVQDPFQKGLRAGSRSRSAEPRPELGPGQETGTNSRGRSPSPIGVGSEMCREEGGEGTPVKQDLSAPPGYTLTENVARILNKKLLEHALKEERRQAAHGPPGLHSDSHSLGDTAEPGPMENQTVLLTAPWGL
UniProt O96013: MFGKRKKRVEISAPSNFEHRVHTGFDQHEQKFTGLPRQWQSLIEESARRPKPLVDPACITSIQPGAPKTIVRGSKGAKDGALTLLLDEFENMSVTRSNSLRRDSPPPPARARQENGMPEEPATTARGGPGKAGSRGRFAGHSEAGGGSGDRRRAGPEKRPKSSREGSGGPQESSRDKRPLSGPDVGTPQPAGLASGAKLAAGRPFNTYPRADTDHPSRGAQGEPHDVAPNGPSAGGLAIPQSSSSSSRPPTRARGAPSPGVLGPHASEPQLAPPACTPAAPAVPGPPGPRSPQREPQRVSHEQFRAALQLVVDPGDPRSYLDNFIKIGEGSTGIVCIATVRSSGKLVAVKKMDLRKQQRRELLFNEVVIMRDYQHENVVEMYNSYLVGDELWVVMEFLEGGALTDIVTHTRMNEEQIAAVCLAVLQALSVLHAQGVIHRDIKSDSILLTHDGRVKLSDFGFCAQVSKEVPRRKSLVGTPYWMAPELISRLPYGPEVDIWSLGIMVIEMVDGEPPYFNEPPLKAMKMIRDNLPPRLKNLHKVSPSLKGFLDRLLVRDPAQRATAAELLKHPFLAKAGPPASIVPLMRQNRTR
UniProt Q15691: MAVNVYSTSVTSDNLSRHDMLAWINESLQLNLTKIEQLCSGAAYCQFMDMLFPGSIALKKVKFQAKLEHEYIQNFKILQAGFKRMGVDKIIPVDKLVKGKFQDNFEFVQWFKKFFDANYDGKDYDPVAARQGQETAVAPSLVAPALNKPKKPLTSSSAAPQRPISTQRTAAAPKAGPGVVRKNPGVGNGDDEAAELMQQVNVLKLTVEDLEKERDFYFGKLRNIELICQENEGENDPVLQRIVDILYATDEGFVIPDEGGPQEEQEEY
UniProt Q9NQU5: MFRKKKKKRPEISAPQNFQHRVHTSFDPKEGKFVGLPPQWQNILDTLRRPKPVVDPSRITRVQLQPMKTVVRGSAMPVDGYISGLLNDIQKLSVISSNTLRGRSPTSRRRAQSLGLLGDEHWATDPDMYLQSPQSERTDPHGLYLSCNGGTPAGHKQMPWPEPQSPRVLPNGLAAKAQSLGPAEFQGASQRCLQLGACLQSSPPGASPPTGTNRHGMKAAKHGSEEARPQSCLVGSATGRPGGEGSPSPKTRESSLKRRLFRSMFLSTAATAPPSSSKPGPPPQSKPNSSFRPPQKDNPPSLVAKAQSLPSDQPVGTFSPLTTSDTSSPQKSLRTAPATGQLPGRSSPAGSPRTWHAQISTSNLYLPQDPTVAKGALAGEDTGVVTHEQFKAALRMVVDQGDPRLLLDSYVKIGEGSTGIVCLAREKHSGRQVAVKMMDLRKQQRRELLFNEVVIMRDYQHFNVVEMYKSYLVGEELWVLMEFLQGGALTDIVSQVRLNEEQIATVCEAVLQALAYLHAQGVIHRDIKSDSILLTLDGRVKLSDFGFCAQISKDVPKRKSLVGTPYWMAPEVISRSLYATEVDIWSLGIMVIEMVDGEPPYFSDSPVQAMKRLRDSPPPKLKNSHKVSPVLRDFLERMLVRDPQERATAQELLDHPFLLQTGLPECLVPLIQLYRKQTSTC
UniProt P33176: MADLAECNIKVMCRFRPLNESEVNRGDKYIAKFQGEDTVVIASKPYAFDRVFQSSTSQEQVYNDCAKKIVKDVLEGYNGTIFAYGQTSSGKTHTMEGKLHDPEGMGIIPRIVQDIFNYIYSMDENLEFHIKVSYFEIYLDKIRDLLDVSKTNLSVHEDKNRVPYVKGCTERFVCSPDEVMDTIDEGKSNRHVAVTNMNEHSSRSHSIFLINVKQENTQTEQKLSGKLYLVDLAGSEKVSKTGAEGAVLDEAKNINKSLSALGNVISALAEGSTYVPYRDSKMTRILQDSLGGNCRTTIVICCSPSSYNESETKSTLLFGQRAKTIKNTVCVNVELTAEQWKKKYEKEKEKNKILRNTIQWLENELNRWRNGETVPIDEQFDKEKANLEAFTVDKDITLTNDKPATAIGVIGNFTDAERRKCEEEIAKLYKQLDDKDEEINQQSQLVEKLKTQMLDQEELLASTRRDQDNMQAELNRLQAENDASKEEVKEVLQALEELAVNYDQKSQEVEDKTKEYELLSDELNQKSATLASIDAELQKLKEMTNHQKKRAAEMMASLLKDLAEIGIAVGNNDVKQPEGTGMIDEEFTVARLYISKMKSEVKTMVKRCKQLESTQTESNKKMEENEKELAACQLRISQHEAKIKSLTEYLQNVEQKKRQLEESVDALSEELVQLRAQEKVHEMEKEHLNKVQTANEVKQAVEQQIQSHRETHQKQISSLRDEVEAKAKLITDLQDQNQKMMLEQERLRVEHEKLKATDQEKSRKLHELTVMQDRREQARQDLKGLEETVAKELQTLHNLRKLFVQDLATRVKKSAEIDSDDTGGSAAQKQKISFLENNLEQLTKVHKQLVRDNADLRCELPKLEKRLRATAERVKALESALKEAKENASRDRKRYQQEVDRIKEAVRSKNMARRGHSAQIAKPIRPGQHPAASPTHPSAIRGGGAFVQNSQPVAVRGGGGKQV

In assay [1] the target is integrin β5 (endogenous, keratinocytes) (human (endogenous in PA-JEB/β4 and HaCaT keratinocytes)) (UniProt P18084). Put plainly: affinity purification with mass spectrometry; immunoprecipitation of β5 with rabbit serum 5HK2 (β6 serum 5HK1 as negative control) on Protein A Sepharose from NP40 lysates of PA-JEB/β4 and HaCaT keratinocytes; label-free quantitation, FDR 0.05.
The target in assay [2] is β5–BirA* (UniProt P18084). Put plainly: proximity labelling; BioID: BirA* fusions expressed in PA-JEB/β4 keratinocytes, 50 µM biotin for 24 h, RIPA lysis, biotinylated proteins isolated on Streptavidin Sepharose, western blot.

Results are given in words; binding and its absence hold for the method and conditions named. Binding seen in cells or lysates may run through a third protein. A yes stands for co-enrichment or nearness to the bait. Other partners may have been found. For some of these results: A no says only that the protein was not detected with the bait.

“PAK3 (from UniProt O75914 1-559) (enzyme)”: the binding entry in assay [1] is reported as “no binding”.
Turning to “kinesin-1 light chain (KLC1) (from UniProt Q07866 1-573)”, the binding entry in assay [1] is listed as “binds”.
Consider “PAK2 (from UniProt Q13177 1-524) (enzyme)”, for which, in assay [1], the binding result was “no binding”.
As for “microtubule crosslinking factor 1 (MTCL1) (from UniProt Q9Y4B5 1-1905)”, the binding entry in assay [1] is given as “binds”.
With “p21-activated kinase 4 (PAK4) (from UniProt O96013 1-591) (enzyme)”, the binding entry in assay [1] was “no binding”.
Turning to EB1 (from UniProt Q15691 1-268), the binding entry in assay [1] was “binds”.
Still for that read-out and setting: next, “microtubule affinity-regulating kinase 2 (MARK2) (from UniProt Q7KZI7 1-788) (enzyme)”: “binds”.
Still for that read-out and setting: next, “PAK6 (from UniProt Q9NQU5 1-681) (enzyme)”: “no binding”; “kinesin-1 heavy chain (KIF5B) (from UniProt P33176 1-963)”: “binds”; NUDC (from UniProt Q9Y266 1-331): “binds”.

B1: ARH (PA-JEB/β4 keratinocytes) (protein, UniProt Q5SW96 1-308)
chain: MDALKSAGRALIRSPSLAKQSWGGGGRHRKLPENWTDTRETLLEGMLFSLKYLGMTLVEQPKGEELSAAAIKRIVATAKASGKKLQKVTLKVSPRGIILTDNLTNQLIENVSIYRISYCTADKMHDKVFAYIAQSQHNQSLECHAFLCTKRKMAQAVTLTVAQAFKVAFEFWQVSKEEKEKRDKASQEGGDVLGARQDCTPSLKSLVATGNLLDLEETAKAPLSTVSANTTNMDEVPRPQALSGSSVVWELDDGLDEAFSRLAQSRTNPQVLDTGLTAQDMHYAQCLSPVDWDKPDSSGTEQDDLFSF
For B1, the binding result in assay [2] was “binds”.

B2: Numb (PA-JEB/β4 keratinocytes) (protein, UniProt P49757 1-651)
chain: MNKLRQSFRRKKDVYVPEASRPHQWQTDEEGVRTGKCSFPVKYLGHVEVDESRGMHICEDAVKRLKAERKFFKGFFGKTGKKAVKAVLWVSADGLRVVDEKTKDLIVDQTIEKVSFCAPDRNFDRAFSYICRDGTTRRWICHCFMAVKDTGERLSHAVGCAFAACLERKQKREKECGVTATFDASRTTFTREGSFRVTTATEQAEREEIMKQMQDAKKAETDKIVVGSSVAPGNTAPSPSSPTSPTSDATTSLEMNNPHAIPRRHAPIEQLARQGSFRGFPALSQKMSPFKRQLSLRINELPSTMQRKTDFPIKNAVPEVEGEAESISSLCSQITNAFSTPEDPFSSAPMTKPVTVVAPQSPTFQANGTDSAFHVLAKPAHTALAPVAMPVRETNPWAHAPDAANKEIAATCSGTEWGQSSGAASPGLFQAGHRRTPSEADRWLEEVSKSVRAQQPQASAAPLQPVLQPPPPTAISQPASPFQGNAFLTSQPVPVGVVPALQPAFVPAQSYPVANGMPYPAPNVPVVGITPSQMVANVFGTAGHPQAAHPHQSPSLVRQQTFPHYEASSATTSPFFKPPAQHLNGSAAFNGVDDGRLASADRHTEVPTGTCPVDPFEAQWAALENKSKQRTNPSPTNPFSSDLQKTFEIEL
As for B2, the binding entry in assay [2] is “binds”.

B3: HOOK2 (protein, UniProt Q96ED9 1-719)
chain: MSVDKAELCGSLLTWLQTFHVPSPCASPQDLSSGLAVAYVLNQIDPSWFNEAWLQGISEDPGPNWKLKVSNLKMVLRSLVEYSQDVLAHPVSEEHLPDVSLIGEFSDPAELGKLLQLVLGCAISCEKKQDHIQRIMTLEESVQHVVMEAIQELMTKDTPDSLSPETYGNFDSQSRRYYFLSEEAEEGDELQQRCLDLERQLMLLSEEKQSLAQENAGLRERMGRPEGEGTPGLTAKKLLLLQSQLEQLQEENFRLESGREDERLRCAELEREVAELQHRNQALTSLAQEAQALKDEMDELRQSSERAGQLEATLTSCRRRLGELRELRRQVRQLEERNAGHAERTRQLEDELRRAGSLRAQLEAQRRQVQELQGQRQEEAMKAEKWLFECRNLEEKYESVTKEKERLLAERDSLREANEELRCAQLQPRGLTQADPSLDPTSTPVDNLAAEILPAELRETLLRLQLENKRLCRQEAADRERQEELQRHLEDANRARHGLETQHRLNQQQLSELRAQVEDLQKALQEQGGKTEDAISILLKRKLEEHLQKLHEADLELQRKREYIEELEPPTDSSTARRIEELQHNLQKKDADLRAMEERYRRYVDKARMVMQTMEPKQRPAAGAPPELHSLRTQLRERDVRIRHLEMDFEKSRSQREQEEKLLISAWYNMGMALQQRAGEERAPAHAQSFLAQQRLATNSRRGPLGRLASLNLRPTDKH
As for B3, the binding result in assay [1] was “binds”.
